Data source: PubChem BioAssay AID1224830 (NIAID, 2016)

Test: 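Regulators of TLR4 signalling towards TNF-alpha in macrophage-like cells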 (primary screen)
System: human THP-1 monocytic leukaemia cells, TNF dual-luciferase reporter clone, PMA-differentiated to macrophage-like cells
Reagents: siRNA pool against human genes, 50 nM
Duration: LPS for 4 h, given about 3 days after siRNA transfection
Challenge: bacterial LPS (TLR4 ligand), 10 ng/ml
Measured: 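TNF firefly reporter luminescence divided by renilla, normalised to the plate median, then turned into a robust z-score for each replicate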
Direction: TNF reporter robust z-score: higher = stronger TNF reporter response to LPS
Hit rule: 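Each well counts as active if its z-score is over 2.8 or under -1.5; controls are left without a call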
Shown is one part, drawn at random, of about 18,000 reagents tested. Over the whole deposit, about 2,900 (16%) were called active. 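Calls are made per well; low scores hint the gene aids the LPS response, high scores that it dampens it.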 Repeated entries: four replicate wells of each siRNA pool. No sequences are given here.

OR2J3 — TNF reporter robust z-score: 0.83; activity call: inactive
OR2J3 — TNF reporter robust z-score: 2.13; activity call: inactive
OR2J3 — TNF reporter robust z-score: -1.16; activity call: inactive
OR2J3 — TNF reporter robust z-score: -0.32; activity call: inactive
NAB1 — TNF reporter robust z-score: 1.85; activity call: inactive
NAB1 — TNF reporter robust z-score: 0.22; activity call: inactive
NAB1 — TNF reporter robust z-score: -0.19; activity call: inactive
NAB1 — TNF reporter robust z-score: 0.41; activity call: inactive
BPIFB1 — TNF reporter robust z-score: -0.78; activity call: inactive
BPIFB1 — TNF reporter robust z-score: -0.33; activity call: inactive
BPIFB1 — TNF reporter robust z-score: -0.72; activity call: inactive
BPIFB1 — TNF reporter robust z-score: -0.2; activity call: inactive
MSTN — TNF reporter robust z-score: -0.58; activity call: inactive
MSTN — TNF reporter robust z-score: -0.28; activity call: inactive
MSTN — TNF reporter robust z-score: -0.72; activity call: inactive
MSTN — TNF reporter robust z-score: -0.13; activity call: inactive
LMO2 — TNF reporter robust z-score: 0.55; activity call: inactive
LMO2 — TNF reporter robust z-score: -0.64; activity call: inactive
LMO2 — TNF reporter robust z-score: -0.3; activity call: inactive
LMO2 — TNF reporter robust z-score: 1.57; activity call: inactive

Next part (5 carried over from the part before).
MSTN — TNF reporter robust z-score: -0.13; activity call: inactive
LMO2 — TNF reporter robust z-score: 0.55; activity call: inactive
LMO2 — TNF reporter robust z-score: -0.64; activity call: inactive
LMO2 — TNF reporter robust z-score: -0.3; activity call: inactive
LMO2 — TNF reporter robust z-score: 1.57; activity call: inactive
CALCOCO1 — TNF reporter robust z-score: -1.5; activity call: inactive
CALCOCO1 — TNF reporter robust z-score: -0.9; activity call: inactive
CALCOCO1 — TNF reporter robust z-score: -0.8; activity call: inactive
CALCOCO1 — TNF reporter robust z-score: -0.7; activity call: inactive
ZNF768 — TNF reporter robust z-score: 1.18; activity call: inactive
ZNF768 — TNF reporter robust z-score: 0.31; activity call: inactive
ZNF768 — TNF reporter robust z-score: 0.14; activity call: inactive
ZNF768 — TNF reporter robust z-score: 1.17; activity call: inactive
DDOST — TNF reporter robust z-score: 0.96; activity call: inactive
DDOST — TNF reporter robust z-score: 1.24; activity call: inactive
DDOST — TNF reporter robust z-score: -0.56; activity call: inactive
DDOST — TNF reporter robust z-score: -0.98; activity call: inactive
VPS13D — TNF reporter robust z-score: -0.05; activity call: inactive
VPS13D — TNF reporter robust z-score: -0.31; activity call: inactive
VPS13D — TNF reporter robust z-score: -1.12; activity call: inactive
VPS13D — TNF reporter robust z-score: -0.5; activity call: inactive
IFT140 — TNF reporter robust z-score: -0.54; activity call: inactive
IFT140 — TNF reporter robust z-score: -0.52; activity call: inactive
IFT140 — TNF reporter robust z-score: -0.92; activity call: inactive
IFT140 — TNF reporter robust z-score: 0.6; activity call: inactive
SCN11A — TNF reporter robust z-score: -0.82; activity call: inactive
SCN11A — TNF reporter robust z-score: -0.63; activity call: inactive
SCN11A — TNF reporter robust z-score: 0.86; activity call: inactive
SCN11A — TNF reporter robust z-score: 1.56; activity call: inactive
ASAP3 — TNF reporter robust z-score: -1.29; activity call: inactive
ASAP3 — TNF reporter robust z-score: -0.77; activity call: inactive
ASAP3 — TNF reporter robust z-score: -1.28; activity call: inactive
ASAP3 — TNF reporter robust z-score: -0.62; activity call: inactive
